# Target: T1, hKCC3b (Homo sapiens, UniProt Q9UHW9)
# The chains behind the UniProt entries cited, without tags or fusion partners. Where a name states a change or a piece, a line headed by the entry shows the natural chain unless it says otherwise.
# UniProt Q9UHW9: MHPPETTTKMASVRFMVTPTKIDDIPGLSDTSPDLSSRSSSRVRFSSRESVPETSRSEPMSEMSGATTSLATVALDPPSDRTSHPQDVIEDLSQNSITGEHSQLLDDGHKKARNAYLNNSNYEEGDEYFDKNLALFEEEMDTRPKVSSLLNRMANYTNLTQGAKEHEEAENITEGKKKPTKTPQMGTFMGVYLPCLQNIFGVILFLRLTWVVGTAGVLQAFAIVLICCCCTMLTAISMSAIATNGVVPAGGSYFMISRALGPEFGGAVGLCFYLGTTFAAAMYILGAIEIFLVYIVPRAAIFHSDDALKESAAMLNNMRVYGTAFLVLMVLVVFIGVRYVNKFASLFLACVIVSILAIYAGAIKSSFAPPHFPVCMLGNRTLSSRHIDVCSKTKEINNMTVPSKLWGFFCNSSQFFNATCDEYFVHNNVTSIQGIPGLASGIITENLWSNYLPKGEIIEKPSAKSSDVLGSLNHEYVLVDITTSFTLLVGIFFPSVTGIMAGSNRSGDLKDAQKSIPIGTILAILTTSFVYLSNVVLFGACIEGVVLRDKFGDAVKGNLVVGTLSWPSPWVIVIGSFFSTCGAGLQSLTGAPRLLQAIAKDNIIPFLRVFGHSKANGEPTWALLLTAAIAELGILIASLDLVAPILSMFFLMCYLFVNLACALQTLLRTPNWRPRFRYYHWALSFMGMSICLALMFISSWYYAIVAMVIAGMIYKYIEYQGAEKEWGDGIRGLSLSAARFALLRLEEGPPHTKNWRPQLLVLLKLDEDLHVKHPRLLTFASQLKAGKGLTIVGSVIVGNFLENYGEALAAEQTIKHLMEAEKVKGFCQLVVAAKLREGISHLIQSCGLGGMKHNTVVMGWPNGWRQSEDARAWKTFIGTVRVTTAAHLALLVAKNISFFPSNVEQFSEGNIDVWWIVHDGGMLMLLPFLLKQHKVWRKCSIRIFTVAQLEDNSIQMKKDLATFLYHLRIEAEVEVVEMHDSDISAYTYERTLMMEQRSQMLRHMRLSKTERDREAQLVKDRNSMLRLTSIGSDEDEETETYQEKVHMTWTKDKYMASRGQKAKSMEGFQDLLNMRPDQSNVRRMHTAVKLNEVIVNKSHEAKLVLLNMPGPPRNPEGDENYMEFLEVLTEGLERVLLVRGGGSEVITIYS
# T1 construct: expressed in transfected cells; host or cells: Xenopus oocytes microinjected with KCC3b cRNA
# T1 sequence (Q9UHW9 1-1099 isoform Q9UHW9-2): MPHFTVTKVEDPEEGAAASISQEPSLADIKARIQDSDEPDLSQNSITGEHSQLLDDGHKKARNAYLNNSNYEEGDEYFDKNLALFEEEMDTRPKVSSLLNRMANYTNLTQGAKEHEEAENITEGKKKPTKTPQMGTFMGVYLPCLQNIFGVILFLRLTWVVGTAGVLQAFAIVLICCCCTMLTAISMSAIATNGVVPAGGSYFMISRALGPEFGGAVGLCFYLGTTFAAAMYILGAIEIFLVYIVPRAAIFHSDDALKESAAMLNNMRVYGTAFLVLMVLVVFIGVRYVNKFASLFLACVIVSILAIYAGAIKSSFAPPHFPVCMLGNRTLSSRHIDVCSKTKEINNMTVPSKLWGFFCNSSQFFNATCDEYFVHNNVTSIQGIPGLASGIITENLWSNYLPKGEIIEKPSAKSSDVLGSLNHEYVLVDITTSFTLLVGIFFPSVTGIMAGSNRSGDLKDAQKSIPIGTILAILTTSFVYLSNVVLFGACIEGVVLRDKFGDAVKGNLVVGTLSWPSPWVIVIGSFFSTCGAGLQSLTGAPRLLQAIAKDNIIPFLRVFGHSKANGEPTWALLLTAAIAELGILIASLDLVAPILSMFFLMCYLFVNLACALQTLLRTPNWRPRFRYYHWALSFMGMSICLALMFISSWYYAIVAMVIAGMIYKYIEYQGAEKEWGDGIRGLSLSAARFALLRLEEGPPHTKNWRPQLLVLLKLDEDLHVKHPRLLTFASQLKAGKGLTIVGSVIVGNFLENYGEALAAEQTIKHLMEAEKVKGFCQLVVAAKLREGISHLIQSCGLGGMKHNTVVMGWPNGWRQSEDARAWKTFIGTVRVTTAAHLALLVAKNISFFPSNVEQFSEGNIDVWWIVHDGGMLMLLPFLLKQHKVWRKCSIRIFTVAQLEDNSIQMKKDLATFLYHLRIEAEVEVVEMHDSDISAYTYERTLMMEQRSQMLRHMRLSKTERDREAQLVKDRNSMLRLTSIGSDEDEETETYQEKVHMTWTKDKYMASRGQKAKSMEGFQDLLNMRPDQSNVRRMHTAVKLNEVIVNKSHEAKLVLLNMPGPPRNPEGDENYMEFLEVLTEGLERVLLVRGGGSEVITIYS
# Assay type: cell-based
# Description: Open bars, uptake assays performed in a control medium containing 10 mM K^+and 50 mM Cl^−; hatched bars, uptake assays performed in medium lacking Cl^−; bars with horizontal stripes, uptake assays performed in the presence of 100 nM calyculin A; black bars, uptake assays performed in the presence of okadaic acid; gray bars, uptake assays performed in the presence of cypermetrin.
compound,measurement,value
NS(=O)(=O)c1cc(C(=O)O)c(NCc2ccco2)cc1Cl [furosemide],hKCC3b-mediated K+-Cl- cotransport in the presence of putative inhibitors,sensitive

# Reference: patent publication US7183075B2, “Purified and isolated potassium-chloride cotransporter nucleic acids and polypeptides and therapeutic and screening methods using same” (Vanderbilt University, priority 2000, dated 2007)
